Test results: article PMC5940772 (Nature Communications, 2018)
Results are given in words; binding and its absence hold for the method and conditions named. Some results given as binding are weak or reduced against the parent protein; the word gives no strength.

Chains of the proteins cited; added tags and fusions are not shown. Lines headed by an entry give the natural chain unless they say otherwise; changes in a name come on top. A line that says so, or that is headed by a name, gives the form on record, which may keep a tag or linker. Residues count along the entry.
UniProt Q14258: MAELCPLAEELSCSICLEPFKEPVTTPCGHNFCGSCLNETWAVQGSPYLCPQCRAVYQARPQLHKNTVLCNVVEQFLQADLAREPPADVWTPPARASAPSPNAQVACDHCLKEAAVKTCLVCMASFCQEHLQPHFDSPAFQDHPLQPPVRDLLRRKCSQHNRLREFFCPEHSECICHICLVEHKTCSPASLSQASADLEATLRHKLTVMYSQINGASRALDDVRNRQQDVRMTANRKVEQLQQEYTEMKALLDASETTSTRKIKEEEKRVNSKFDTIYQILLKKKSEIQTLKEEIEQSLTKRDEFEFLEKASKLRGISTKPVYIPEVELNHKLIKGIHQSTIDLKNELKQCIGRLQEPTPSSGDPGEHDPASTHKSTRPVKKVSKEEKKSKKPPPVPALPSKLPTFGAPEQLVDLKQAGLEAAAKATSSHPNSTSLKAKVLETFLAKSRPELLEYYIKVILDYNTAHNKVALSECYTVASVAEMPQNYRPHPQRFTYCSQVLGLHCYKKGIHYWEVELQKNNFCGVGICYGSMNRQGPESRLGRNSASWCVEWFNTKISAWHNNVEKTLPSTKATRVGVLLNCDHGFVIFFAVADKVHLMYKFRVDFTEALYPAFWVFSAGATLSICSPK
TRIM25-CC (coiled-coil domain of TRIM25, 189-379), tag removed: residues 189-379 of Q14258
UniProt P03496, residues 79-230: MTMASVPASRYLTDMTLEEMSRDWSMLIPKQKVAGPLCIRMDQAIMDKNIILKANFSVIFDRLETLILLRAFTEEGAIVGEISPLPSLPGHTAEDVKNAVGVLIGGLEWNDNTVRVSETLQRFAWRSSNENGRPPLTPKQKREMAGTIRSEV

Key:
[1] = target: Human TRIM25 CC-PRYSPRY domain (residues 189-630) (human) (UniProt Q14258); test: crystal structure; both purified
[2] = target: TRIM25-CC (coiled-coil domain of TRIM25, 189-379), tag removed (human) (UniProt Q14258); test: crystal structure; both purified

Row | Substance | binding [1] | binding [2]
1 | Human TRIM25 CC-PRYSPRY domain (residues 189-630) (from UniProt Q14258 189-630) (domain or fragment) | binds | –
2 | NS1-ED (effector domain of NS1, 79-230) (from UniProt P03496 79-230) (domain or fragment) | – | binds
